The source of these data is PMC8706149 (International Journal of Molecular Sciences, 2021).

This assay concerns Staphylococcus aureus ATCC 6538P. Kind of assay: MIC, broth microdilution. Format: cell-based. Particulars: ATCC6538P, read-out: MIC (µg/mL) Staphylococcus aureus ATCC 6538P. The procedure:
All the labeled peptide after purification were lyophilized and dissolved in water. Purity was veri-fi e d by RP-HPLC on C18 column . Pepti de i dentity was assessed by mass spectrometry anal yses (Supplementary Methods, section S4; Table S1).
S6. Antimicrobial activity assay
MIC (Minimum Inhibitory Concentration) analyses were performed by broth microdilution method for antimicrobial peptides previously described wi th mi nor modi ficati ons. In detai l s, assays were carried out in Nutrient Broth 0.5x (Difco, Detroit, MI, US A ) usi ng st e r i le 96-well polypropylene mi-croti ter pl ates (cat. 3879, C ostar C orp., C ambri dge, MA , US A ). Bacterial strains were grown in Luria-Bertani (LB) medium overnight at 37°C and then diluted in Nutrient Broth at a final concentration of ~5x10^5 CFU/mL per well. Twofold serial dilutions of peptides were carried out in the test wells […]
Plates were incubated overnight at 37°C. MIC value was taken as the lowest concentration at which growth was inhibited. Three independent experiments we r e performed for each MIC value. […] MIC values were measured on Gram-negative ( E scherichia coli ATCC 25922) and Gram-po si t i ve st r ains (Sta phyl o co ccus a ure us ATCC 6538P and Bacillus globigii TNO BMO13) . […]

Molecules are shown by their SMILES. In brackets after ≈: the same amount, converted by molar mass.

`CN[C@H](CC(C)C)C(=O)N[C@H]1C(=O)N[C@@H](CC(N)=O)C(=O)N[C@H]2C(=O)N[C@H]3C(=O)N[C@H](C(=O)N[C@H](C(=O)O)c4cc(O)cc(O)c4-c4cc3ccc4O)[C@H](O)c3ccc(c(Cl)c3)Oc3cc2cc(c3O[C@@H]2O[C@H](CO)[C@@H](O)[C@H](O)[C@H]2O[C@H]2C[C@](C)(N)[C@H](O)[C@H](C)O2)Oc2ccc(cc2Cl)[C@H]1O` [Vancomycin, vancomycin]: the MIC worked out at 0.5 µg/mL (≈ 0.345 µM).
